Reference: article PMC10441460, “Identification of Selective ATP-Competitive CMG Helicase Inhibitors for Cancer Intervention that Disrupt CMG-Replisome Function” (Research Square, 2023)
These are yes or no findings as the source states them, for the method shown. Binding seen in cells or lysates may run through a third protein. Some results given as binding are weak or reduced against the parent protein; the word gives no strength.

Sequences of proteins named here, by UniProt entry; tags and fusion partners are left off.
UniProt P49736: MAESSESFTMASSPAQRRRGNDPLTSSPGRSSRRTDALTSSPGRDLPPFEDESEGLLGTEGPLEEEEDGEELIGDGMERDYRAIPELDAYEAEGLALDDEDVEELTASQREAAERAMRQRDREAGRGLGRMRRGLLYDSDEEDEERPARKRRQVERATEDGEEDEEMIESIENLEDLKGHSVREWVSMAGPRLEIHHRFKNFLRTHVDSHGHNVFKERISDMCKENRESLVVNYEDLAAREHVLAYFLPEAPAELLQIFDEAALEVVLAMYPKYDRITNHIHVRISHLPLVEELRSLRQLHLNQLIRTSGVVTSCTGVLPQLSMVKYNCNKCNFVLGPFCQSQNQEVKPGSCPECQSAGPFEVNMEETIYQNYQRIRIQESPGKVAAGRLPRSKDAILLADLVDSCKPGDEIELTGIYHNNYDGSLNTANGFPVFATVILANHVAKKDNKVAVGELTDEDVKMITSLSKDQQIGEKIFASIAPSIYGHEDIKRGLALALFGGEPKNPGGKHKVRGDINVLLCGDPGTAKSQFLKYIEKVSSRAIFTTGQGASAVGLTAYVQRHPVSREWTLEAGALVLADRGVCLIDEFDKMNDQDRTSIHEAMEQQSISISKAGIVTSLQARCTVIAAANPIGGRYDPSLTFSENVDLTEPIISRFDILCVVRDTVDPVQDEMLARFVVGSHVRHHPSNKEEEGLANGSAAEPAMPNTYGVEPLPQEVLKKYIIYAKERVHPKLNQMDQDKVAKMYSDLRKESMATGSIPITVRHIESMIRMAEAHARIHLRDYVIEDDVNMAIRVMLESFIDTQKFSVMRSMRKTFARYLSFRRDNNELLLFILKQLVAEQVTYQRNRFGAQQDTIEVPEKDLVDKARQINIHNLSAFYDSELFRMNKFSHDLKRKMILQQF

Tests used:
[1] = biological target: T1, Psf1 (endogenous) (human (endogenous in HaCaT and HEK-293T)) (UniProt Q14691); test: co-IP; as a2, but the beads with the immunoprecipitated complexes were incubated with 15 µM coumermycin-A1 (CA1) for 30 min, washed, immunoblotted
T1 sequence: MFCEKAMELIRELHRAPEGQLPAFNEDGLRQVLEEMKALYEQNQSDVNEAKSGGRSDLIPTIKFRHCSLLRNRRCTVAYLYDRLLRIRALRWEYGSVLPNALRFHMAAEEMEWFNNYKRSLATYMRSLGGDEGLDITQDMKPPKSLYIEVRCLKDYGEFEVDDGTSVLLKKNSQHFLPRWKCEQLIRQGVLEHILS

[2] = biological target: T1, Psf1 (endogenous) (human (endogenous in HaCaT and HEK-293T)); test: co-IP; nuclear extract of synchronized HaCaT cells (20 hrs after release, S-phase), 200 mM potassium acetate, 0.01% Triton X-100, 4°C; IP with anti-Psf1 or anti-Mcm2 (IgG control), protein A/G agarose; beads incubated with DMSO for 30 min, washed, immunoblotted
[3] = biological target: T1, Psf1 (endogenous) (human (endogenous in HaCaT and HEK-293T)); test: condition: only with 15 µM CA1 on the immunoprecipitated complexes for 30 min; co-IP; as a2, but the beads with the immunoprecipitated complexes were incubated with 15 µM coumermycin-A1 (CA1) for 30 min, washed, immunoblotted
[4] = biological target: Mcm2 (endogenous) (human (endogenous in HaCaT)) (UniProt P49736); test: as above
[5] = biological target: Flag-Mcm2 (human, ectopic) (human) (UniProt P49736); test: condition: only with 15 µM CA1 on the immunoprecipitated complexes for 30 min; co-IP; as a4, but the beads with the immunoprecipitated complexes were incubated with 15 µM coumermycin-A1 (CA1) for 30 min, washed, immunoblotted
[6] = biological target: Flag-Mcm2 (human, ectopic) (human) (UniProt P49736); test: co-IP; nuclear extract of asynchronous HEK-293T cells stably expressing Flag-Mcm2, 200 mM potassium acetate, 0.01% Triton X-100, 4°C; IP with anti-Flag agarose (mouse IgG agarose control); beads incubated with DMSO for 30 min, washed, immunoblotted
[7] = biological target: Mcm2 (endogenous) (human (endogenous in HaCaT)) (UniProt P49736); test: co-IP; nuclear extract of synchronized HaCaT cells (20 hrs after release, S-phase), 200 mM potassium acetate, 0.01% Triton X-100, 4°C; IP with anti-Psf1 or anti-Mcm2 (IgG control), protein A/G agarose; beads incubated with DMSO for 30 min, washed, immunoblotted
[8] = biological target: Flag-Mcm2 (human, ectopic) (human), P49736; test: co-IP; nuclear extract of asynchronous HEK-293T cells stably expressing Flag-Mcm2, 200 mM potassium acetate, 0.01% Triton X-100, 4°C; IP with anti-Flag agarose (mouse IgG agarose control); beads incubated with DMSO for 30 min, washed, immunoblotted; details: remark: other sources report otherwise

Binder | binding [1] | binding [2] | binding [5] | binding [6] | further results
Psf2 (endogenous) (protein, UniProt Q9Y248 1-185) MDAAEVEFLAEKELVTIIPNFSLDKIYLIGGDLGPFNPGLPVEVPLWLAINLKQRQKCRLLPPEWMDVEKLEKMRDHERKEETFTPMPSPYYMELTKLLLNHASDNIPKADEIRTLVKDMWDTRIAKLRVSADSFVRQQEAHAKLDNLTLMEINTSGTFLTQALNHMYKLRTNLQPLESTQSQDF | binds | binds | – | – | –
Psf3 (endogenous) (protein, UniProt Q9BRX5 1-216) MSEAYFRVESGALGPEENFLSLDDILMSHEKLPVRTETAMPRLGAFFLERSAGAETDNAVPQGSKLELPLWLAKGLFDNKRRILSVELPKIYQEGWRTVFSADPNVVDLHKMGPHFYGFGSQLLHFDSPENADISQSLLQTFIGRFRRIMDSSQNAYNEDTSALVARLDEMERGLFQTGQKGLNDFQCWEKGQASQITASNLVQNYKKRKFTDMED | binds | binds | – | – | –
Mcm6 (endogenous) (protein, UniProt Q14566 1-821) MDLAAAAEPGAGSQHLEVRDEVAEKCQKLFLDFLEEFQSSDGEIKYLQLAEELIRPERNTLVVSFVDLEQFNQQLSTTIQEEFYRVYPYLCRALKTFVKDRKEIPLAKDFYVAFQDLPTRHKIRELTSSRIGLLTRISGQVVRTHPVHPELVSGTFLCLDCQTVIRDVEQQFKYTQPNICRNPVCANRRRFLLDTNKSRFVDFQKVRIQETQAELPRGSIPRSLEVILRAEAVESAQAGDKCDFTGTLIVVPDVSKLSTPGARAETNSRVSGVDGYETEGIRGLRALGVRDLSYRLVFLACCVAPTNPRFGGKELRDEEQTAESIKNQMTVKEWEKVFEMSQDKNLYHNLCTSLFPTIHGNDEVKRGVLLMLFGGVPKTTGEGTSLRGDINVCIVGDPSTAKSQFLKHVEEFSPRAVYTSGKASSAAGLTAAVVRDEESHEFVIEAGALMLADNGVCCIDEFDKMDVRDQVAIHEAMEQQTISITKAGVKATLNARTSILAAANPISGHYDRSKSLKQNINLSAPIMSRFDLFFILVDECNEVTDYAIARRIVDLHSRIEESIDRVYSLDDIRRYLLFARQFKPKISKESEDFIVEQYKHLRQRDGSGVTKSSWRITVRQLESMIRLSEAMARMHCCDEVQPKHVKEAFRLLNKSIIRVETPDVNLDQEEEIQMEVDEGAGGINGHADSPAPVNGINGYNEDINQESAPKASLRLGFSEYCRISNLIVLHLRKVEEEEDESALKRSELVNWYLKEIESEIDSEEELINKKRIIEKVIHRLTHYDHVLIELTQAGLKGSTEGSESYEEDPYLVVNPNYLLED | – | binds | – | – | binding [3]: no binding
Cdc45 (endogenous) (protein, UniProt O75419 1-566) MFVSDFRKEFYEVVQSQRVLLFVASDVDALCACKILQALFQCDHVQYTLVPVSGWQELETAFLEHKEQFHYFILINCGANVDLLDILQPDEDTIFFVCDTHRPVNVVNVYNDTQIKLLIKQDDDLEVPAYEDIFRDEEEDEEHSGNDSDGSEPSEKRTRLEEEIVEQTMRRRQRREWEARRRDILFDYEQYEYHGTSSAMVMFELAWMLSKDLNDMLWWAIVGLTDQWVQDKITQMKYVTDVGVLQRHVSRHNHRNEDEENTLSVDCTRISFEYDLRLVLYQHWSLHDSLCNTSYTAARFKLWSVHGQKRLQEFLADMGLPLKQVKQKFQAMDISLKENLREMIEESANKFGMKDMRVQTFSIHFGFKHKFLASDVVFATMSLMESPEKDGSGTDHFIQALDSLSRSNLDKLYHGLELAKKQLRATQQTIASCLCTNLVISQGPFLYCSLMEGTPDVMLFSRPASLSLLSKHLLKSFVCSTKNRRCKLLPLVMAAPLSMEHGTVTVVGIPPETDSSDRKNFFGRAFEKAAESTSSRMLHNHFDLSVIELKAEDRSKFLDALISLLS | – | – | no binding | binds | binding [4]: no binding; binding [7]: binds
Psf1 (endogenous) (protein, UniProt Q14691 1-196) MFCEKAMELIRELHRAPEGQLPAFNEDGLRQVLEEMKALYEQNQSDVNEAKSGGRSDLIPTIKFRHCSLLRNRRCTVAYLYDRLLRIRALRWEYGSVLPNALRFHMAAEEMEWFNNYKRSLATYMRSLGGDEGLDITQDMKPPKSLYIEVRCLKDYGEFEVDDGTSVLLKKNSQHFLPRWKCEQLIRQGVLEHILS | – | – | no binding | binds | –
Ctf4 (endogenous), O75717 1-1129 (protein) MPATRKPMRYGHTEGHTEVCFDDSGSFIVTCGSDGDVRIWEDLDDDDPKFINVGEKAYSCALKSGKLVTAVSNNTIQVHTFPEGVPDGILTRFTTNANHVVFNGDGTKIAAGSSDFLVKIVDVMDSSQQKTFRGHDAPVLSLSFDPKDIFLASASCDGSVRVWQISDQTCAISWPLLQKCNDVINAKSICRLAWQPKSGKLLAIPVEKSVKLYRRESWSHQFDLSDNFISQTLNIVTWSPCGQYLAAGSINGLIIVWNVETKDCMERVKHEKGYAICGLAWHPTCGRISYTDAEGNLGLLENVCDPSGKTSSSKVSSRVEKDYNDLFDGDDMSNAGDFLNDNAVEIPSFSKGIINDDEDDEDLMMASGRPRQRSHILEDDENSVDISMLKTGSSLLKEEEEDGQEGSIHNLPLVTSQRPFYDGPMPTPRQKPFQSGSTPLHLTHRFMVWNSIGIIRCYNDEQDNAIDVEFHDTSIHHATHLSNTLNYTIADLSHEAILLACESTDELASKLHCLHFSSWDSSKEWIIDLPQNEDIEAICLGQGWAAAATSALLLRLFTIGGVQKEVFSLAGPVVSMAGHGEQLFIVYHRGTGFDGDQCLGVQLLELGKKKKQILHGDPLPLTRKSYLAWIGFSAEGTPCYVDSEGIVRMLNRGLGNTWTPICNTREHCKGKSDHYWVVGIHENPQQLRCIPCKGSRFPPTLPRPAVAILSFKLPYCQIATEKGQMEEQFWRSVIFHNHLDYLAKNGYEYEESTKNQATKEQQELLMKMLALSCKLEREFRCVELADLMTQNAVNLAIKYASRSRKLILAQKLSELAVEKAAELTATQVEEEEEEEDFRKKLNAGYSNTATEWSQPRFRNQVEEDAEDSGEADDEEKPEIHKPGQNSFSKSTNSSDVSAKSGAVTFSSQGRVNPFKVSASSKEPAMSMNSARSTNILDNMGKSSKKSTALSRTTNNEKSPIIKPLIPKPKPKQASAASYFQKRNSQTNKTEEVKEENLKNVLSETPAICPPQNTENQRPKTGFQMWLEENRSNILSDNPDFSDEADIIKEGMIRFRVLSTEERKVWANKAKGETASEGTEAKKRKRVVDESDETENQEEKAKENLNLSKKQKPLDFSTNQKLSAFAFKQE | – | – | – | – | binding [8]: binds
